The text below walks through data of article PMC7827699.

Sequences of proteins named here, by UniProt entry; tags and fusion partners are left off.
UniProt P61960: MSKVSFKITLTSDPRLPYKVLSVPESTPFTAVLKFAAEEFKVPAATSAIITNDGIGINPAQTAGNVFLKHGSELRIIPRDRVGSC
UniProt Q9GZZ9: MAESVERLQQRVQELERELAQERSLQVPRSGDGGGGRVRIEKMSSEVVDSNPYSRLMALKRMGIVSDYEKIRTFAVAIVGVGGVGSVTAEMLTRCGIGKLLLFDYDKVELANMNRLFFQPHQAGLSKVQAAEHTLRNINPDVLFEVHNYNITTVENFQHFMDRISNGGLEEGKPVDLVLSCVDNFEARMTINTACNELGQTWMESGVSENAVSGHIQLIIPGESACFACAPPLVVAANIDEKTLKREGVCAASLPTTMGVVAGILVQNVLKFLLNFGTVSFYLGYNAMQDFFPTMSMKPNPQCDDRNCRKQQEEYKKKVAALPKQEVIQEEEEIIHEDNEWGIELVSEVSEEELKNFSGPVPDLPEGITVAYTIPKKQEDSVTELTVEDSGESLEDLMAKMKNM
UniProt P47813: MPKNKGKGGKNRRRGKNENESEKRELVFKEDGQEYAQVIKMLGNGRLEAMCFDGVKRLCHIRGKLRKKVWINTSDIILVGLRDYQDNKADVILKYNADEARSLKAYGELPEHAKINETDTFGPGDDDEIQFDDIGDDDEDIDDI
UniProt Q9UGP8: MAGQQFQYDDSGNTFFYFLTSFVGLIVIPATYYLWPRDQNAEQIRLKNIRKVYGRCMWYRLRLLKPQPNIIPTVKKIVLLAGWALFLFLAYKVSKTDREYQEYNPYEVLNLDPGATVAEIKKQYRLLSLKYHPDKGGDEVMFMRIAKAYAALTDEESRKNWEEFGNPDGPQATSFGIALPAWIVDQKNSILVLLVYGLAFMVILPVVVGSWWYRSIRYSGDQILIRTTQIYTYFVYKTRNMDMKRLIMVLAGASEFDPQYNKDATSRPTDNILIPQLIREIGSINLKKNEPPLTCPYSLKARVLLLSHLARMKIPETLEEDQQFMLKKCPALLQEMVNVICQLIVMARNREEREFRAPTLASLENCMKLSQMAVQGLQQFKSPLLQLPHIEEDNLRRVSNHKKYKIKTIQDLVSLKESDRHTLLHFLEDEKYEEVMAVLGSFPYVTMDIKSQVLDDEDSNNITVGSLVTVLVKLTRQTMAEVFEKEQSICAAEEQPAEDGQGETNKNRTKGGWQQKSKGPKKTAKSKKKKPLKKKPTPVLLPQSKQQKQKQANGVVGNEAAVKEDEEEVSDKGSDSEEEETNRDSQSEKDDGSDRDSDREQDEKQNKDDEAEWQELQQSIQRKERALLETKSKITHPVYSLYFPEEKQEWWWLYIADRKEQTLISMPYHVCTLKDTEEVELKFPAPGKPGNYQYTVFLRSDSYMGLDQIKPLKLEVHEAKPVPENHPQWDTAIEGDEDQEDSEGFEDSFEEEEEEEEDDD

These are yes or no findings as the source states them, for the method shown. Binding seen in cells or lysates may run through a third protein. These calls come from enrichment with a bait or labelling near it, and not all partners need be listed. A no says only that the protein was not detected with the bait.

B1: TXNL1 (protein, UniProt O43396 1-289)
chain: MVGVKPVGSDPDFQPELSGAGSRLAVVKFTMRGCGPCLRIAPAFSSMSNKYPQAVFLEVDVHQCQGTAATNNISATPTFLFFRNKVRIDQYQGADAVGLEEKIKQHLENDPGSNEDTDIPKGYMDLMPFINKAGCECLNESDEHGFDNCLRKDTTFLESDCDEQLLITVAFNQPVKLYSMKFQGPDNGQGPKYVKIFINLPRSMDFEEAERSEPTQALELTEDDIKEDGIVPLRYVKFQNVNSVTIFVQSNQGEEETTRISYFTFIGTPVQATNMNDFKRVVGKKGESH
B2: UPF1 (protein, UniProt Q92900 1-1129)
chain: MSVEAYGPSSQTLTFLDTEEAELLGADTQGSEFEFTDFTLPSQTQTPPGGPGGPGGGGAGGPGGAGAGAAAGQLDAQVGPEGILQNGAVDDSVAKTSQLLAELNFEEDEEDTYYTKDLPIHACSYCGIHDPACVVYCNTSKKWFCNGRGNTSGSHIVNHLVRAKCKEVTLHKDGPLGETVLECYNCGCRNVFLLGFIPAKADSVVVLLCRQPCASQSSLKDINWDSSQWQPLIQDRCFLSWLVKIPSEQEQLRARQITAQQINKLEELWKENPSATLEDLEKPGVDEEPQHVLLRYEDAYQYQNIFGPLVKLEADYDKKLKESQTQDNITVRWDLGLNKKRIAYFTLPKTDSGNEDLVIIWLRDMRLMQGDEICLRYKGDLAPLWKGIGHVIKVPDNYGDEIAIELRSSVGAPVEVTHNFQVDFVWKSTSFDRMQSALKTFAVDETSVSGYIYHKLLGHEVEDVIIKCQLPKRFTAQGLPDLNHSQVYAVKTVLQRPLSLIQGPPGTGKTVTSATIVYHLARQGNGPVLVCAPSNIAVDQLTEKIHQTGLKVVRLCAKSREAIDSPVSFLALHNQIRNMDSMPELQKLQQLKDETGELSSADEKRYRALKRTAERELLMNADVICCTCVGAGDPRLAKMQFRSILIDESTQATEPECMVPVVLGAKQLILVGDHCQLGPVVMCKKAAKAGLSQSLFERLVVLGIRPIRLQVQYRMHPALSAFPSNIFYEGSLQNGVTAADRVKKGFDFQWPQPDKPMFFYVTQGQEEIASSGTSYLNRTEAANVEKITTKLLKAGAKPDQIGIITPYEGQRSYLVQYMQFSGSLHTKLYQEVEIASVDAFQGREKDFIILSCVRANEHQGIGFLNDPRRLNVALTRARYGVIIVGNPKALSKQPLWNHLLNYYKEQKVLVEGPLNNLRESLMQFSKPRKLVNTINPGARFMTTAMYDAREAIIPGSVYDRSSQGRPSSMYFQTHDQIGMISAGPSHVAAMNIPIPFNLVMPPMPPPGYFGQANGPAAGRGTPKGKTGRGGRQKNRFGLPGPSQTNLPNSQASQDVASQPFSQGALTQGYISMSQPSQMSQPGLSQPELSQDSYLGDEFKSQIDVALSQDSTYQGERAYQHGGVTGLSQY
B3: TP53RK (protein, UniProt Q96S44 1-253)
chain: MAAARATTPADGEEPAPEAEALAAARERSSRFLSGLELVKQGAEARVFRGRFQGRAAVIKHRFPKGYRHPALEARLGRRRTVQEARALLRCRRAGISAPVVFFVDYASNCLYMEEIEGSVTVRDYIQSTMETEKTPQGLSNLAKTIGQVLARMHDEDLIHGDLTTSNMLLKPPLEQLNIVLIDFGLSFISALPEDKGVDLYVLEKAFLSTHPNTETVFEAFLKSYSTSSKKARPVLKKLDEVRLRGRKRSMVG
B4: Hsp70 chaperone HSPA13 (protein, UniProt P48723 23-471)
chain: QQYLPLPTPKVIGIDLGTTYCSVGVFFPGTGKVKVIPDENGHISIPSMVSFTDNDVYVGYESVELADSNPQNTIYDAKRFIGKIFTAEELEAEIGRYPFKVLNKNGMVEFSVTSNETITVSPEYVGSRLLLKLKEMAEAYLGMPVANAVISVPAEFDLKQRNSTIEAANLAGLKILRVINEPTAAAMAYGLHKADVFHVLVIDLGGGTLDVSLLNKQGGMFLTRAMSGNNKLGGQDFNQRLLQYLYKQIYQTYGFVPSRKEEIHRLRQAVEMVKLNLTLHQSAQLSVLLTVEEQDRKEPHSSDTELPKDKLSSADDHRVNSGFGRGLSDKKSGESQVLFETEISRKLFDTLNEDLFQKILVPIQQVLKEGHLEKTEIDEVVLVGGSTRIPRIRQVIQEFFGKDPNTSVDPDLAVVTGVAIQAGIDGGSWPLQVSALEIPNKHLQKTNFN

This assay has as its target N-terminally StrepII-tagged UFM1 (ubiquitin-fold modifier 1), wildtype (human) (UniProt P61960). Kind of assay: affinity purification with mass spectrometry.
Take “UBA5, the E1 enzyme of UFM1 (from UniProt Q9GZZ9 1-404)”: the binding entry is on record as “binds”.

With EIF1AX (from UniProt P47813 1-144), the binding result is “binds”.

For “Hsp40 chaperone SEC63 (from UniProt Q9UGP8 1-760)”, the binding entry is “no binding”.

B1: the binding entry was “binds”.

As for B2, the binding result is recorded as “binds”.

Turning to B3, the binding entry is recorded as “binds”.

B4: the binding entry was “no binding”.
